# In all, about 33,000 sequences were measured (“E-score (-0.5 to 0.5)”: median about -0.0034, highest 2% from about 0.25 on). The list shows a part of the results.
# Molecular target: T1, Yap3 (UniProt P38749)
# T1 sequence: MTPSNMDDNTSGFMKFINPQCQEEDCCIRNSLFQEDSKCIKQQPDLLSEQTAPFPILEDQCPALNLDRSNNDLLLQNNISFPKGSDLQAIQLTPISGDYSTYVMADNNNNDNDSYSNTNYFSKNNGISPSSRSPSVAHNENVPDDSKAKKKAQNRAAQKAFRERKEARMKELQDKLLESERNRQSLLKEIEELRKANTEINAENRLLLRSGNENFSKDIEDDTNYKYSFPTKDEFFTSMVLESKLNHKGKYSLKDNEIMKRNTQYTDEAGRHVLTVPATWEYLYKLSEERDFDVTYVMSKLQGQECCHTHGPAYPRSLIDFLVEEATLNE
# Test: PBM E-score (8-mer binding enrichment) (E-score (-0.5 to 0.5)); higher = stronger / more preferred TF binding
# Conditions: protein concentration: 100 nM; construct: GST-full length
# In short: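 Each ungapped eight-base word and its reverse complement, pooled, received an E-score from the Universal PBM Analysis Suite. Underlying scans, normalised with masliner, recorded fluorescent anti-GST bound to GST-tagged yeast transcription factors. These were applied at about 100-200 nM to universal all-10-mer Agilent arrays double-stranded by primer extension.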
row,Sequence,PBM E-score
1,CATAGACC,0.0365
2,GGGTTCAC,-0.148
3,GCTCGAAC,0.0117
4,ACACTTAC,0.0812
5,AGTCAAGG,-0.064
6,GACGTCCA,0.125
7,TATGTTGA,0.233
8,CCAGGACA,0.0041
9,GATGGTCC,-0.109
10,ACGCAATA,0.165
11,GGCTCCAC,-0.184
12,GCGAGGAA,-0.0709
13,GGGCCGAA,-0.196
14,CGATCTCA,0.0754
15,AAACTTGT,-0.014
16,ATCCGCAT,0.12
17,CTAGAACC,-0.0352
18,AACGCCCG,0.0232
19,CATGAAGC,-0.102
20,ACGTTCTG,-0.0681
21,ACATTGCA,0.0303
22,CCCCGAGG,-0.19
23,CGGTTAGA,-0.0778
24,CGTACGTC,-0.0833
25,GTACCATA,-0.068

row,Sequence,PBM E-score
1,AGAGGTTG,-0.209
2,AAATAGAC,0.179
3,AAGCAACA,0.0314
4,CAGGGTGC,-0.158
5,GATGAGAA,0.0962
6,CCGTCCGC,-0.237
7,ATAAAGCG,0.254
8,AGTTCGCG,0.105
9,ACTCACAC,-0.0492
10,AACAGAGG,-0.0698
11,GTCCAAAC,-0.171
12,ACACTGAC,0.103
13,CCCGATTC,-0.00335
14,AACAAAGT,0.221
15,ATAAATCC,0.0986
16,ATTTGAAC,0.0499
17,CGCCGAGA,-0.0405
18,AAAGGGCG,-0.0936
19,TACGCCAA,-0.211
20,CCCGCCAC,-0.00354
21,CTTCGTCA,0.111
22,CGATACAC,-0.0355
23,AATATATG,0.304
24,AACAGTCT,-0.212
25,AATTTTCT,0.15

row,Sequence,PBM E-score
1,GATCTAAC,0.0181
2,CGTCAGCA,-0.00789
3,AGTACTCC,-0.112
4,ACACGGGC,-0.0903
5,AACGAACC,0.185
6,TACAGTCA,0.0978
7,CCCCTCCG,-0.27
8,AAGTGTTG,0.181
9,AACCAATA,0.103
10,ATCATTAA,0.207
11,TGAGAGCA,0.0596
12,ACAGCGAA,0.0633
13,TGCCCCCA,-0.1
14,CCAGTTGC,-0.248
15,GATCCATC,-0.0764
16,CATTGGGA,0.00323
17,AATCAATA,0.151
18,ACCGTTCG,0.12
19,CGTGGCTA,-0.171
20,CATCAGCA,-0.0232
21,CCCCGGTC,-0.271
22,CGCTCTGA,-0.105
23,ACGAAGAC,-0.0817
24,AGGTCCAC,-0.341
25,ACTTAACG,-0.103

row,Sequence,PBM E-score
1,CACGCTGC,-0.159
2,GATCTCTA,-0.0106
3,CCTTCGAC,-0.159
4,CAAGAGGC,-0.15
5,ATGTTCGC,-0.102
6,AAAGCGGT,-0.0262
7,AAAATAGT,0.12
8,AGCCCAAG,-0.189
9,ATCTCGTC,0.0786
10,CCACTGCG,-0.0433
11,CAGTGTTC,0.135
12,AAATCTGT,0.0609
13,CCTGATAC,0.224
14,GAGCGGCC,-0.198
15,ACAAGCGA,0.184
16,GCTTGTGA,-0.156
17,CCAGTCTA,-0.13
18,CGGTAGTA,-0.0312
19,CAATTATA,0.167
20,CGCCTTTA,0.0625
21,AAATCTAC,0.2
22,GCTGCCTA,-0.0151
23,ACGGGTGC,0.079
24,CTGCTCTA,0.0428
25,ATAGATGG,-0.127

row,Sequence,PBM E-score
1,GCGTGCTA,-0.296
2,CATGTTCC,-0.0249
3,CACCTATG,-0.101
4,ACCTGTCA,-0.0551
5,ACACCTAG,-0.0883
6,CGGCACGA,0.089
7,ACGGTTGA,0.0142
8,AGTACCCG,-0.0217
9,CAAAGGTC,-0.153
10,AAAATTCA,0.242
11,GATCTACA,0.00555
12,ACAGACCT,0.123
13,GGGAACGA,-0.128
14,AGTCTTCG,-0.075
15,CCAGTCGA,-0.0553
16,AATCGGAT,0.0545
17,CGAACCAG,0.0735
18,GGTTGTTA,0.166
19,AATGCAAT,-0.126
20,CCCTGTCA,-0.127
21,ATCGAGCG,0.00361
22,AGGGCAGA,-0.127
23,ACCCTGGA,-0.181
24,TCTACCAA,0.0569
25,AAATAGTG,0.187

# 2 entries drawn at random from the list so far, as already listed:
row,Sequence,PBM E-score
22,CGATACAC,-0.0355
17,CGAACCAG,0.0735

# Carrying on.

row,Sequence,PBM E-score
1,CCCACAAA,0.176
2,CGGAGAAG,-0.149
3,CTTACGGA,-0.0822
4,GACTGGAA,-0.121
5,AACTCTCA,-0.069
6,CTCCTGGC,-0.0301
7,AGTAAGAT,0.231
8,CAGTGGGA,-0.164
9,GGGTTGGA,-0.172
10,CATCAAAC,0.173
11,CGGCTGGA,-0.164
12,ACGCCCAA,0.0861
13,ACCTCTAG,-0.09
14,AAAGTAAC,0.166
15,GGCGCAAC,-0.138
16,AGTGAATA,0.0943
17,AGTAATAC,0.113
18,CGACAGTA,-0.0588
19,AGGCGCCC,-0.244
20,ACAAAGTA,0.0375
21,AGTACATC,0.00325
22,AACACACC,0.155
23,ATATTGCC,0.124
24,GGCACCAC,-0.148
25,AATTCCCT,0.0542

# Taken from above.
# AGGCGCCC | PBM E-score: -0.244
# CAGTGGGA | PBM E-score: -0.164
# CGGCTGGA | PBM E-score: -0.164
# AACACACC | PBM E-score: 0.155

# Next part.

row,Sequence,PBM E-score
1,CATTGCGC,0.0202
2,ATCACCGA,0.161
3,ATAGACCA,0.103
4,TCCCCAGA,-0.2
5,GCGAGTAA,0.173
6,TAAGTATA,0.275
7,CCCACGGG,-0.296
8,AAGTGAGT,-0.0165
9,CGGTAAGA,-0.053
10,ACCAGTGC,-0.345
11,GTGCACTA,0.0636
12,CACTAGTC,-0.105
13,AAGGAAGG,-0.194
14,GCTGTCAA,-0.106
15,TCAGAACA,0.0982
16,CAAGCTCC,-0.295
17,AACTGTGC,-0.147
18,TGTCAACA,0.0838
19,ATAGCCTC,-0.0226
20,AAACTTGG,-0.0251
21,CGCGCTAC,0.161
22,GGTCCCGA,-0.111
23,GGGTTTCA,-0.0128
24,GCCGGATA,0.0772
25,CTCTTTCC,-0.0604

row,Sequence,PBM E-score
1,ACACGGAG,-0.0548
2,CCTACTGA,0.0127
3,ATGTAACC,-0.0665
4,CAGACAAC,0.0898
5,ACTCGGTG,-0.174
6,CGATCGCC,0.0236
7,CCAGCTAC,-0.0877
8,AAAGGAGC,-0.0479
9,CACGCTAC,-0.105
10,GAAGTACA,-0.0666
11,TAAGCCCA,0.023
12,AACGTCCC,-0.14
13,CGAGTGTC,-0.0309
14,GTGGACAA,0.0878
15,AAGGGTCC,-0.285
16,CTATTACA,0.163
17,GGGTCGGA,-0.298
18,ACTGGTGG,-0.139
19,GAACCTCA,-0.0916
20,CGGGTGTC,-0.15
21,CAGCTTTA,0.119
22,AGCGCCTA,0.118
23,AAGACTCC,-0.212
24,ACTAGCCA,-0.0537
25,GCCAAGAA,-0.0116

# 4 entries from above, tab-delimited:
row	Sequence	PBM E-score
2	CATGTTCC	-0.0249
3	CACCTATG	-0.101
4	ACCTGTCA	-0.0551
5	ACACCTAG	-0.0883

# Following part.

row,Sequence,PBM E-score
1,TCTCAAAA,0.176
2,CAAGTGGC,0.152
3,ATTCGGGG,0.1
4,ATAAGCTG,0.0821
5,CACCTGAC,-0.024
6,CGGCTCCC,-0.329
7,CGCGCTTC,-0.00635
8,AACAGCTT,0.1
9,GGAGTAAA,0.267
10,ATCGCGCC,0.019
11,AACCATAT,0.266
12,CGGAGCGA,0.0816
13,GGTTAGGA,-0.198
14,GCACCGTA,-0.0116
15,GGTGCGGA,-0.0917
16,GAAGCCTC,-0.198
17,TGAGTCCA,-0.133
18,AATGATGT,0.211
19,AGTTCCGG,-0.0393
